The results in this text go back to PMC3783193.

Chains of the proteins cited; added tags and fusions are not shown. Lines headed by an entry give the natural chain unless they say otherwise; changes in a name come on top.
UniProt Q5ZJV9: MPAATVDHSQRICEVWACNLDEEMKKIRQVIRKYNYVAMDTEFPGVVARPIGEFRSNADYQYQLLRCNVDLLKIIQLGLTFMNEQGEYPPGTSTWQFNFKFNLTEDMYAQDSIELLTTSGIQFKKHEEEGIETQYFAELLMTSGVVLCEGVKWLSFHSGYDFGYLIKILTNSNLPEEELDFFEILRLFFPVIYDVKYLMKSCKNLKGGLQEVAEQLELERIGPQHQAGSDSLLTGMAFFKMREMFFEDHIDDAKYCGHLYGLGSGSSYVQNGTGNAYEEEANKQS
UniProt Q5ZIW2: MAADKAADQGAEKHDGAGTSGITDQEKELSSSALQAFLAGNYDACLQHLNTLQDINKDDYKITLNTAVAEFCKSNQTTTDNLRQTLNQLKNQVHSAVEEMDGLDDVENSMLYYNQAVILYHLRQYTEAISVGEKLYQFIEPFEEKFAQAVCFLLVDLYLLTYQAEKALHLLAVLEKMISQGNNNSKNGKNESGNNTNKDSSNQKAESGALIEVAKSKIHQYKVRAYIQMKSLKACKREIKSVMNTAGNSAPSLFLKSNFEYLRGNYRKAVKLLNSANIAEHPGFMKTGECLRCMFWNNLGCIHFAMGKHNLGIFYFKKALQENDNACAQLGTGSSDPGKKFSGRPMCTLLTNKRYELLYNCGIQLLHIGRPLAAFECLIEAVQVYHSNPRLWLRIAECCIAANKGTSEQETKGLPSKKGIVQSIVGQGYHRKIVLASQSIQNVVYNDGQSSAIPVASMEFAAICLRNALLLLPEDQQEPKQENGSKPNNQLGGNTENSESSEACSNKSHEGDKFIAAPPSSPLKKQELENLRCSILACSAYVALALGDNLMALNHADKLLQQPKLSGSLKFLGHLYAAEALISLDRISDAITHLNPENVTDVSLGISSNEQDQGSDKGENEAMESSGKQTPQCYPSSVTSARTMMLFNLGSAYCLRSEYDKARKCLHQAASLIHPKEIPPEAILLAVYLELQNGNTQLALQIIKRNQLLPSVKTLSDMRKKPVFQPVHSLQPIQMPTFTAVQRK
UniProt A0A8V0YGT1: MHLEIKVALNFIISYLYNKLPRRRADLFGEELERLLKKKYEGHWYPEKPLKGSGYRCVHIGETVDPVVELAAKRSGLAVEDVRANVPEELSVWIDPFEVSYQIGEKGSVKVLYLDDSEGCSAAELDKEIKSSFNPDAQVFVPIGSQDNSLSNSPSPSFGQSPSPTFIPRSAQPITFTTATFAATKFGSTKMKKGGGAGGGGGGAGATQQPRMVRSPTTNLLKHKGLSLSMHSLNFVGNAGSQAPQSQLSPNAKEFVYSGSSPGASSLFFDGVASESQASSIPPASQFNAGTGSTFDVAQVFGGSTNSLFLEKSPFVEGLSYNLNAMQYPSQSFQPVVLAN

These are yes or no findings as the source states them, for the method shown. In cells and extracts the contact can be indirect. A yes stands for co-enrichment or nearness to the bait. Other partners may have been found. A no says only that the protein was not detected with the bait.

The test addresses QuantEGFP-tagged CNOT7 (chicken (endogenous in DT40)) (UniProt Q5ZJV9). The test can be described thus: affinity purification with mass spectrometry; QuantEGFP-tagged bait captured from RNase A-digested DT40 lysate on GFP-Trap beads (1 h, 8°C; 10 mM Tris/HCl, 100 mM NaCl, Triton X-100), eluted with TEV protease, LC-MS; duplicates; control purification from parental DT40 Cre1 cells.

In the case of CNOT10 (from UniProt Q5ZIW2 1-744), the binding entry is “no binding”.

On to TOB2 (from UniProt A0A8V0YGT1), for which the binding entry is “binds”.
